These results are taken from article PMC5964349, “A Single-Domain Response Regulator Functions as an Integrating Hub To Coordinate General Stress Response and Development in Alphaproteobacteria” (mBio, 2018).

The chains behind the UniProt entries cited, without tags or fusion partners. Where a name states a change or a piece, a line headed by the entry shows the natural chain unless it says otherwise.
UniProt Q9A428: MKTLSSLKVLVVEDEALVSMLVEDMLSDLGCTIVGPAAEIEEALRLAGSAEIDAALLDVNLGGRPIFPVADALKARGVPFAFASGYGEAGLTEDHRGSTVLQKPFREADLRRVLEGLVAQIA
UniProt A0A0H3CAN8: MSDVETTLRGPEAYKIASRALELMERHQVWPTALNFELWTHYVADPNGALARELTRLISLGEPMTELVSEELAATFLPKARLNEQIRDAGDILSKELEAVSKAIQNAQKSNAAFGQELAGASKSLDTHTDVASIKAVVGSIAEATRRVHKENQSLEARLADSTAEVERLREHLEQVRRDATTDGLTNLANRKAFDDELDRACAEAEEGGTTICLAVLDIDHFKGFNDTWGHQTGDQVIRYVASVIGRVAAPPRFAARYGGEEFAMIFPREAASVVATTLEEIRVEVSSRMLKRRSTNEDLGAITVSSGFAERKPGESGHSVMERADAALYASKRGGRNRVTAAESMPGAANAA

No constants are given. Whether binding was seen depends on the method and setting. Binding seen in cells or lysates may run through a third protein. A yes stands for co-enrichment or nearness to the bait. Other partners may have been found.

In this test the target is MrrA-3×FLAG (multifunctional response regulator A, CC3015) (C. crescentus) (UniProt Q9A428). As to the kind of experiment: affinity purification with mass spectrometry; lysate (Bug Buster) of C. crescentus expressing mrrA-3×FLAG; anti-FLAG antibodies by the legend of Table S1 (the methods name Ni-NTA agarose); control strain with untagged MrrA; eluate digested and analysed by LC-MS/MS.

With “diguanylate cyclase DgcB (from UniProt A0A0H3CAN8) (enzyme)”, the binding entry was “binds”.
